assay: TMTcalibrator quantification of regulated proteins in AD CSF versus control; parameters: species or system human; details: CSF of AD patient versus control; non-modified peptides of each protein summed for three control and three AD cases

Row | Molecule | Log2 AD/Control
1 | Q8WXD9 (protein, UniProt Q8WXD9 1-1431, looked up, full-length) MGKEQELVQAVKAEDVGTAQRLLQRPRPGKAKLLGSTKKINVNFQDPDGFSALHHAALNGNTELISLLLEAQAAVDIKDNKGMRPLHYAAWQGRKEPMKLVLKAGSAVNIPSDEGHIPLHLAAQHGHYDVSEMLLQHQSNPCMVDNSGKTPLDLACEFGRVGVVQLLLSSNMCAALLEPRPGDATDPNGTSPLHLAAKNGHIDIIRLLLQAGIDINRQTKSGTALHEAALCGKTEVVRLLLDSGINAHVRNTYSQTALDIVHQFTTSQASREIKQLLREASAALQVRATKDYCNNYDLTSLNVKAGDIITVLEQHPDGRWKGCIHDNRTGNDRVGYFPSSLGEAIVKRAGSRAGTEPSLPQGSSSSGPSAPPEEIWVLRKPFAGGDRSGSISGMAGGRGSGGHALHAGSEGVKLLATVLSQKSVSESGPGDSPAKPPEGSAGVARSQPPVAHAGQVYGEQPPKKLEPASEGKSSEAVSQWLTAFQLQLYAPNFISAGYDLPTISRMTPEDLTAIGVTKPGHRKKIAAEISGLSIPDWLPEHKPANLAVWLSMIGLAQYYKVLVDNGYENIDFITDITWEDLQEIGITKLGHQKKLMLAVRKLAELQKAEYAKYEGGPLRRKAPQSLEVMAIESPPPPEPTPADCQSPKMTTFQDSELSDELQAAMTGPAEVGPTTEKPSSHLPPTPRATTRQDSSLGGRARHMSSSQELLGDGPPGPSSPMSRSQEYLLDEGPAPGTPPREARPGRHGHSIKRASVPPVPGKPRQVLPPGTSHFTPPQTPTKTRPGSPQALGGPHGPAPATAKVKPTPQLLPPTERPMSPRSLPQSPTHRGFAYVLPQPVEGEVGPAAPGPAPPPVPTAVPTLCLPPEADAEPGRPKKRAHSLNRYAASDSEPERDELLVPAAAGPYATVQRRVGRSHSVRAPAGADKNVNRSQSFAVRPRKKGPPPPPPKRSSSALASANLADEPVPDAEPEDGLLGVRAQCRRASDLAGSVDTGSAGSVKSIAAMLELSSIGGGGRAARRPPEGHPTPRPASPEPGRVATVLASVKHKEAIGPGGEVVNRRRTLSGPVTGLLATARRGPGESADPGPFVEDGTGRQRPRGPSKGEAGVEGPPLAKVEASATLKRRIRAKQNQQENVKFILTESDTVKRRPKAKEREAGPEPPPPLSVYHNGTGTVRRRPASEQAGPPELPPPPPPAEPPPTDLAHLPPLPPPEGEARKPAKPPVSPKPVLTQPVPKLQGSPTPTSKKVPLPGPGSPEVKRAHGTPPPVSPKPPPPPTAPKPVKAVAGLPSGSAGPSPAPSPARQPPAALAKPPGTPPSLGASPAKPPSPGAPALHVPAKPPRAAAAAAAAAAAPPAPPEGASPGDSARQKLEETSACLAAALQAVEEKIRQEDAQGPRDSAAEKSTGSILDDIGSMFDDLADQLDAMLE | 0.76
2 | P07384 (protein, UniProt P07384 1-714, looked up, full-length) MSEEIITPVYCTGVSAQVQKQRARELGLGRHENAIKYLGQDYEQLRVRCLQSGTLFRDEAFPPVPQSLGYKDLGPNSSKTYGIKWKRPTELLSNPQFIVDGATRTDICQGALGDCWLLAAIASLTLNDTLLHRVVPHGQSFQNGYAGIFHFQLWQFGEWVDVVVDDLLPIKDGKLVFVHSAEGNEFWSALLEKAYAKVNGSYEALSGGSTSEGFEDFTGGVTEWYELRKAPSDLYQIILKALERGSLLGCSIDISSVLDMEAITFKKLVKGHAYSVTGAKQVNYRGQVVSLIRMRNPWGEVEWTGAWSDSSSEWNNVDPYERDQLRVKMEDGEFWMSFRDFMREFTRLEICNLTPDALKSRTIRKWNTTLYEGTWRRGSTAGGCRNYPATFWVNPQFKIRLDETDDPDDYGDRESGCSFVLALMQKHRRRERRFGRDMETIGFAVYEVPPELVGQPAVHLKRDFFLANASRARSEQFINLREVSTRFRLPPGEYVVVPSTFEPNKEGDFVLRFFSEKSAGTVELDDQIQANLPDEQVLSEEEIDENFKALFRQLAGEDMEISVKELRTILNRIISKHKDLRTKGFSLESCRSMVNLMDRDGNGKLGLVEFNILWNRIRNYLSIFRKFDLDKSGSMSAYEMRMAIESAGFKLNKKLYELIITRYSEPDLAVDFDNFVCCLVRLETMFRFFKTLDTDLDGVVTFDLFKWLQLTMFA | 1.06
3 | O94985 (protein, UniProt O94985 1-981, looked up, full-length) MLRRPAPALAPAARLLLAGLLCGGGVWAARVNKHKPWLEPTYHGIVTENDNTVLLDPPLIALDKDAPLRFAESFEVTVTKEGEICGFKIHGQNVPFDAVVVDKSTGEGVIRSKEKLDCELQKDYSFTIQAYDCGKGPDGTNVKKSHKATVHIQVNDVNEYAPVFKEKSYKATVIEGKQYDSILRVEAVDADCSPQFSQICSYEIITPDVPFTVDKDGYIKNTEKLNYGKEHQYKLTVTAYDCGKKRATEDVLVKISIKPTCTPGWQGWNNRIEYEPGTGALAVFPNIHLETCDEPVASVQATVELETSHIGKGCDRDTYSEKSLHRLCGAAAGTAELLPSPSGSLNWTMGLPTDNGHDSDQVFEFNGTQAVRIPDGVVSVSPKEPFTISVWMRHGPFGRKKETILCSSDKTDMNRHHYSLYVHGCRLIFLFRQDPSEEKKYRPAEFHWKLNQVCDEEWHHYVLNVEFPSVTLYVDGTSHEPFSVTEDYPLHPSKIETQLVVGACWQEFSGVENDNETEPVTVASAGGDLHMTQFFRGNLAGLTLRSGKLADKKVIDCLYTCKEGLDLQVLEDSGRGVQIQAHPSQLVLTLEGEDLGELDKAMQHISYLNSRQFPTPGIRRLKITSTIKCFNEATCISVPPVDGYVMVLQPEEPKISLSGVHHFARAASEFESSEGVFLFPELRIISTITREVEPEGDGAEDPTVQESLVSEEIVHDLDTCEVTVEGEELNHEQESLEVDMARLQQKGIEVSSSELGMTFTGVDTMASYEEVLHLLRYRNWHARSLLDRKFKLICSELNGRYISNEFKVEVNVIHTANPMEHANHMAAQPQFVHPEHRSFVDLSGHNLANPHPFAVVPSTATVVIVVCVSFLVFMIILGVFRIRAAHRRTMRDQDTGKENEMDWDDSALTITVNPMETYEDQHSSEEEEEEEEEEESEDGEEEDDITSAESESSEEEEGEQGDPQNATRQQQLEWDDSTLSY | 0.75
4 | Q9BQT9 (protein, UniProt Q9BQT9 1-956, looked up, full-length) MTLLLLPLLLASLLASCSCNKANKHKPWIEAEYQGIVMENDNTVLLNPPLFALDKDAPLRYAGEICGFRLHGSGVPFEAVILDKATGEGLIRAKEPVDCEAQKEHTFTIQAYDCGEGPDGANTKKSHKATVHVRVNDVNEFAPVFVERLYRAAVTEGKLYDRILRVEAIDGDCSPQYSQICYYEILTPNTPFLIDNDGNIENTEKLQYSGERLYKFTVTAYDCGKKRAADDAEVEIQVKPTCKPSWQGWNKRIEYAPGAGSLALFPGIRLETCDEPLWNIQATIELQTSHVAKGCDRDNYSERALRKLCGAATGEVDLLPMPGPNANWTAGLSVHYSQDSSLIYWFNGTQAVQVPLGGPSGLGSGPQDSLSDHFTLSFWMKHGVTPNKGKKEEETIVCNTVQNEDGFSHYSLTVHGCRIAFLYWPLLESARPVKFLWKLEQVCDDEWHHYALNLEFPTVTLYTDGISFDPALIHDNGLIHPPRREPALMIGACWTEEKNKEKEKGDNSTDTTQGDPLSIHHYFHGYLAGFSVRSGRLESREVIECLYACREGLDYRDFESLGKGMKVHVNPSQSLLTLEGDDVETFNHALQHVAYMNTLRFATPGVRPLRLTTAVKCFSEESCVSIPEVEGYVVVLQPDAPQILLSGTAHFARPAVDFEGTNGVPLFPDLQITCSISHQVEAKKDESWQGTVTDTRMSDEIVHNLDGCEISLVGDDLDPERESLLLDTTSLQQRGLELTNTSAYLTIAGVESITVYEEILRQARYRLRHGAALYTRKFRLSCSEMNGRYSSNEFIVEVNVLHSMNRVAHPSHVLSSQQFLHRGHQPPPEMAGHSLASSHRNSMIPSAATLIIVVCVGFLVLMVVLGLVRIHSLHRRVSGAGGPPGASSDPKDPDLFWDDSALTIIVNPMESYQNRQSCVTGAVGGQQEDEDSSDSEVADSPSSDERRIIETPPHRY | 0.76
5 | O43852 (protein, UniProt O43852 1-315, looked up, full-length) MDLRQFLMCLSLCTAFALSKPTEKKDRVHHEPQLSDKVHNDAQSFDYDHDAFLGAEEAKTFDQLTPEESKERLGKIVSKIDGDKDGFVTVDELKDWIKFAQKRWIYEDVERQWKGHDLNEDGLVSWEEYKNATYGYVLDDPDPDDGFNYKQMMVRDERRFKMADKDGDLIATKEEFTAFLHPEEYDYMKDIVVQETMEDIDKNADGFIDLEEYIGDMYSHDGNTDEPEWVKTEREQFVEFRDKNRDGKMDKEETKDWILPSDYDHAEAEARHLVYESDQNKDGKLTKEEIVDKYDLFVGSQATDFGEALVRHDEF | 1.15
6 | Q16566 (protein, UniProt Q16566 1-473, looked up, full-length) MLKVTVPSCSASSCSSVTASAAPGTASLVPDYWIDGSNRDALSDFFEVESELGRGATSIVYRCKQKGTQKPYALKVLKKTVDKKIVRTEIGVLLRLSHPNIIKLKEIFETPTEISLVLELVTGGELFDRIVEKGYYSERDAADAVKQILEAVAYLHENGIVHRDLKPENLLYATPAPDAPLKIADFGLSKIVEHQVLMKTVCGTPGYCAPEILRGCAYGPEVDMWSVGIITYILLCGFEPFYDERGDQFMFRRILNCEYYFISPWWDEVSLNAKDLVRKLIVLDPKKRLTTFQALQHPWVTGKAANFVHMDTAQKKLQEFNARRKLKAAVKAVVASSRLGSASSSHGSIQESHKASRDPSPIQDGNEDMKAIPEGEKIQGDGAQAAVKGAQAELMKVQALEKVKGADINAEEAPKMVPKAVEDGIKVADLELEEGLAEEKLKTVEEAAAPREGQGSSAVGFEVPQQDVILPEY | 0.85
7 | Q9P1Y5 (protein, UniProt Q9P1Y5 1-1249, looked up, full-length) MVEAAPPGPGPLRRTFLVPEIKSLDQYDFSRAKAAASLAWVLRAAFGGAEHVPPELWEPFYTDQYAQEHVKPPVTRLLLSAELYCRAWRQALPQLETPPNPSALLALLARRGTVPALPERPVREADLRHQPILMGAHLAVIDALMAAFAFEWTKTLPGPLALTSLEHKLLFWVDTTVRRLQEKTEQEAAQRASPAAPADGAAPAQPSIRYRKDRVVARRAPCFPTVTSLQDLASGAALAATIHCYCPQLLRLEEVCLKDPMSVADSLYNLQLVQDFCASRLPRGCPLSLEDLLYVPPPLKVNLVVMLAELFMCFEVLKPDFVQVKDLPDGHAASPRGTEASPPQNNSGSSSPVFTFRHPLLSSGGPQSPLRGSTGSLKSSPSMSHMEALGKAWNRQLSRPLSQAVSFSTPFGLDSDVDVVMGDPVLLRSVSSDSLGPPRPAPARTPTQPPPEPGDLPTIEEALQIIHSAEPRLLPDGAADGSFYLHSPEGPSKPSLASPYLPEGTSKPLSDRPTKAPVYMPHPETPSKPSPCLVGEASKPPAPSEGSPKAVASSPAATNSEVKMTSFAERKKQLVKAEAEAGAGSPTSTPAPPEALSSEMSELSARLEEKRRAIEAQKRRIEAIFAKHRQRLGKSAFLQVQPREASGEAEAEAEEADSGPVPGGERPAGEGQGEPTSRPKAVTFSPDLGPVPHEGLGEYNRAVSKLSAALSSLQRDMQRLTDQQQRLLAPPEAPGSAPPPAAWVIPGPTTGPKAASPSPARRVPATRRSPGPGPSQSPRSPKHTRPAELRLAPLTRVLTPPHDVDSLPHLRKFSPSQVPVQTRSSILLAEETPPEEPAARPGLIEIPLGSLADPAAEDEGDGSPAGAEDSLEEEASSEGEPRVGLGFFYKDEDKPEDEMAQKRASLLERQQRRAEEARRRKQWQEVEKEQRREEAARLAQEEAPGPAPLVSAVPMATPAPAARAPAEEEVGPRKGDFTRQEYERRAQLKLMDDLDKVLRPRAAGSGGPGRGGRRATRPRSGCCDDSALARSPARGLLGSRLSKIYSQSTLSLSTVANEAHNNLGVKRPTSRAPSPSGLMSPSRLPGSRERDWENGSNASSPASVPEYTGPRLYKEPSAKSNKFIIHNALSHCCLAGKVNEPQKNRILEEIEKSKANHFLILFRDSSCQFRALYTLSGETEELSRLAGYGPRTVTPAMVEGIYKYNSDRKRFTQIPAKTMSMSVDAFTIQGHLWQGKKPTTPKKGGGTPK | 0.91

Source: patent US12419871B2, “Biomolecules involved in Alzheimer's disease” (ELECTROPHORETICS LIMITED, priority 2015, dated 2025)
